No constants are given. Whether binding was seen depends on the method and setting. For part of these data: Binding seen in cells or lysates may run through a third protein. Some entries that bind do so weakly or less than the wild type. Each block holds one substance with its values, some of them ahead of it.
Assays:
[1] = molecular target: GST-Smad1 MH1 K53R (UniProt Q15797); assay: pull-down; non-radioactive ADP-ribosylation assay: GST-Smad1 MH1 proteins on glutathione beads with recombinant PARP1 (20 ng) and cold β-NAD+, then pulldown and immunoblot for PARP1; both purified
[2] = molecular target: GST-Smad1 MH1 K53A (UniProt Q15797); assay: as above
[3] = molecular target: GST-Smad1 MH1 EELE to QQLQ (UniProt Q15797); assay: as above
[4] = molecular target: GST-Smad1 MH1 (UniProt Q15797); assay: as above
[5] = molecular target: GST-Smad5 (UniProt Q99717); assay: pull-down; in vitro ADP-ribosylation assay done as a pulldown: GST-Smads on glutathione beads with 100 ng recombinant PARP1, 80 nM β-NAD+ and 20 nM 32P-β-NAD+, 30 min at 37 °C; autoradiography; both purified
[6] = molecular target: GST-Smad1 (UniProt Q15797); assay: as above
[7] = molecular target: endogenous PARG (HaCaT) (human (endogenous in HaCaT)) (UniProt Q86W56); assay: co-IP; endogenous proteins from total HaCaT lysates; antibodies precoupled to protein A/G Dynabeads, overnight at 4 °C; without or with 30 ng/ml BMP7 for 30 min; nonspecific IgG as negative control
[8] = molecular target: endogenous PARG (HaCaT) (human (endogenous in HaCaT)) (UniProt Q86W56); assay: co-IP; immunoprecipitation of endogenous PARG from cytoplasmic HaCaT extracts (CelLytic NuCLEAR extraction kit); without or with 30 ng/ml BMP7 for 30 min
[9] = molecular target: endogenous PARG (HaCaT) (human (endogenous in HaCaT)) (UniProt Q86W56); assay: co-IP; immunoprecipitation of endogenous PARG from nuclear HaCaT extracts (CelLytic NuCLEAR extraction kit); without or with 30 ng/ml BMP7 for 30 min
[10] = molecular target: endogenous Smad1 (HaCaT) (human (endogenous in HaCaT)) (UniProt Q15797); assay: co-IP; endogenous proteins from total HaCaT lysates; antibodies precoupled to protein A/G Dynabeads, overnight at 4 °C; without or with 30 ng/ml BMP7 for 30 min; nonspecific IgG as negative control
[11] = molecular target: endogenous Smad1 (HaCaT) (human (endogenous in HaCaT)) (UniProt Q15797); assay: proximity ligation; HaCaT cells, mouse anti-Smad1 and rabbit anti-PARP1 antibodies, Duolink II; without or with 30 ng/ml BMP7 for the indicated times
[12] = molecular target: FLAG-Smad1 (UniProt Q15797); assay: co-IP; unpublished results; HEK293T co-transfected with Smad1 and Smad4 or Smad5 and Smad4, complex with endogenous PARP1
[13] = molecular target: FLAG-Smad5 (UniProt Q99717); assay: as above
[14] = molecular target: GST-Smad5 (UniProt Q99717); assay: pull-down; GST fusion proteins on glutathione-Sepharose beads added to total HEK293T cell lysates, 2 h at 4 °C; washed in Nonidet P-40 lysis buffer; immunoblot for endogenous PARP1; only the target purified
[15] = molecular target: GST-Smad1 MH1 K53R (UniProt Q15797); assay: as above
[16] = molecular target: GST-Smad1 MH1 K53A (UniProt Q15797); assay: as above
[17] = molecular target: GST-Smad1 (UniProt Q15797); assay: as above
[18] = molecular target: GST-Smad1 MH1 EELE to QQLQ (UniProt Q15797); assay: as above
[19] = molecular target: GST-Smad4 (UniProt Q13485); assay: as above
[20] = molecular target: GST-Smad1 MH1 (UniProt Q15797); assay: as above
[21] = molecular target: FLAG-Smad1 (UniProt Q15797); assay: co-IP; HEK293T transfected with FLAG-Smads; FLAG immunoprecipitation, immunoblot for endogenous PARP1; without or with 10 mM H2O2 for 10 min; no BMP ligand
[22] = molecular target: FLAG-Smad3 (UniProt P84022); assay: as above
[23] = molecular target: FLAG-Smad5 (UniProt Q99717); assay: as above
[24] = molecular target: FLAG-Smad4 (UniProt Q13485); assay: as above

Protein sequences, listed by entry. Tags and fused reporters are not part of them. Lines headed by an entry give the natural chain unless they say otherwise; changes in a name come on top. Chains listed by the source or under a name are the forms on record and can include a tag or linker. Residues count along the entry.
UniProt Q15797: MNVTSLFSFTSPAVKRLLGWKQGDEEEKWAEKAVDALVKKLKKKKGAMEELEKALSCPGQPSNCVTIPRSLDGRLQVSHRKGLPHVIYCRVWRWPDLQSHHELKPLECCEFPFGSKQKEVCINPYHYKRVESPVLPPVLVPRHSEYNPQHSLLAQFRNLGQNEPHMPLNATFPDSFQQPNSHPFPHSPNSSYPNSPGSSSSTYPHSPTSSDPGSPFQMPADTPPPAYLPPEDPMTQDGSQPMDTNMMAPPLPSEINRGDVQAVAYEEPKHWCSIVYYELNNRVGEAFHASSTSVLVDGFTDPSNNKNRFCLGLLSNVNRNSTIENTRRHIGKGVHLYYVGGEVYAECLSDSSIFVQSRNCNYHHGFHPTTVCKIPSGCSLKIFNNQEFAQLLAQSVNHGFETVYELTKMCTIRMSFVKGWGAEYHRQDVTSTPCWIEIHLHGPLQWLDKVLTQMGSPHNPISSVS
GST-Smad1 MH1: residues 1-132 of Q15797
GST-Smad1 MH1 K53R (Q15797, form named): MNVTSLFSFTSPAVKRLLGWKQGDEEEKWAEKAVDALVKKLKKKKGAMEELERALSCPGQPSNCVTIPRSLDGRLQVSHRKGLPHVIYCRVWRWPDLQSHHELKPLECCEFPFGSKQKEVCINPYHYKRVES
GST-Smad1 MH1 K53A (Q15797, form named): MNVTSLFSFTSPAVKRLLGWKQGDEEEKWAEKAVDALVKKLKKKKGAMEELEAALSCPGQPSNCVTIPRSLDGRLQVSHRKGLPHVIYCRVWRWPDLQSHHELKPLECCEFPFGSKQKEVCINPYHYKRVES
GST-Smad1 MH1 EELE to QQLQ (Q15797, form named): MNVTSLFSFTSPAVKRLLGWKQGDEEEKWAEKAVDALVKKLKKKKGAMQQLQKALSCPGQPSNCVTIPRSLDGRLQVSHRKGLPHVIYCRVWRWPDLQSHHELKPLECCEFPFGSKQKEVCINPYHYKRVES
UniProt Q99717: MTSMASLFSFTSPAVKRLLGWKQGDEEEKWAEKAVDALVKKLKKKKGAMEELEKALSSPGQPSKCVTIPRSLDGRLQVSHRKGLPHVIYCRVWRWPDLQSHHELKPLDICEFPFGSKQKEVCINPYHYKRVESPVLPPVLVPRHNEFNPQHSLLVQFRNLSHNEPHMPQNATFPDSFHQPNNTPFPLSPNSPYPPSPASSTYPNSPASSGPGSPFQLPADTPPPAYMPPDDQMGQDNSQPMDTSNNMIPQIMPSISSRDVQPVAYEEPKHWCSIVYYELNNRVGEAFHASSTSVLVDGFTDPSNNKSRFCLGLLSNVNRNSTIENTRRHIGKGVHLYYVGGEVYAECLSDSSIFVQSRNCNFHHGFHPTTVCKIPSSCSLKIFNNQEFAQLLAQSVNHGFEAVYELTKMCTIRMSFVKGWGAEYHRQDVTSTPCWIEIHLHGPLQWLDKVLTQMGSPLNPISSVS
UniProt Q86W56: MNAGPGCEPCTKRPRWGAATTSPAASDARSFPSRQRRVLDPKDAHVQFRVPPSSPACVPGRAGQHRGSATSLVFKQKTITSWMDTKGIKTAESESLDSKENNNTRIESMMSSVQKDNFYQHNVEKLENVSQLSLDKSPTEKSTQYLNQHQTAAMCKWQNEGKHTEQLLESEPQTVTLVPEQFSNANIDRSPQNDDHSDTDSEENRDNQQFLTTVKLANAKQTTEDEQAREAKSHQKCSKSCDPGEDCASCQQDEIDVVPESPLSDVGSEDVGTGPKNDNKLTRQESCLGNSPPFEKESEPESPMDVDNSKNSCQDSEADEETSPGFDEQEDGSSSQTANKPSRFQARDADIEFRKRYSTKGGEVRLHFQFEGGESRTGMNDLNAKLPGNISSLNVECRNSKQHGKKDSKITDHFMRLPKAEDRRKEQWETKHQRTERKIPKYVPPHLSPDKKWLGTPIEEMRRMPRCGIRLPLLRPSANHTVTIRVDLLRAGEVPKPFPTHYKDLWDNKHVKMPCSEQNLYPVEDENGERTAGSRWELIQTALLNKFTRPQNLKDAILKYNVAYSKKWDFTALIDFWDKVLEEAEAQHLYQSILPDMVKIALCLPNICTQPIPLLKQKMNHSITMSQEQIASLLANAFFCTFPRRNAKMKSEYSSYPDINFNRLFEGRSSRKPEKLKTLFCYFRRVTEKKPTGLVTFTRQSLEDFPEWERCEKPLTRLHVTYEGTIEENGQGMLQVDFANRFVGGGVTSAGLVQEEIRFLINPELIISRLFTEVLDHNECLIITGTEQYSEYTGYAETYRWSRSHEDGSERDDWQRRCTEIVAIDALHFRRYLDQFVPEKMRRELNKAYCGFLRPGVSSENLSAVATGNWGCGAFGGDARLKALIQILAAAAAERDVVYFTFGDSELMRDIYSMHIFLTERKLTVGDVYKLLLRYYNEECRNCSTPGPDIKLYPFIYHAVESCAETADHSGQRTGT
UniProt Q13485: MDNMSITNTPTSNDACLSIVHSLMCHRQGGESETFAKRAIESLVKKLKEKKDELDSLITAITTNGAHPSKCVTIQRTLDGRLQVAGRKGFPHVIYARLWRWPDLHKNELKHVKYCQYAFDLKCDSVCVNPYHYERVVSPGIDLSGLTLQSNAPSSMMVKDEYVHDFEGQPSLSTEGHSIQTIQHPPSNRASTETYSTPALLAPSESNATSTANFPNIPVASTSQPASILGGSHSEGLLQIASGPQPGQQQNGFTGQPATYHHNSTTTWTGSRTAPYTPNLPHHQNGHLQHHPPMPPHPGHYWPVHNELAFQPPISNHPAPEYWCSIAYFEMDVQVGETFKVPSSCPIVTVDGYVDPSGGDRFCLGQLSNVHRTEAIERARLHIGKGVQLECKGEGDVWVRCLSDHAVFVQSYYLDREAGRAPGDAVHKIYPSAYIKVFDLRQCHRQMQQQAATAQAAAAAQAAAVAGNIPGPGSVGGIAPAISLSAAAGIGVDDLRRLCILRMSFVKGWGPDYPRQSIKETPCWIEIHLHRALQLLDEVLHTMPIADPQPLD
UniProt P84022: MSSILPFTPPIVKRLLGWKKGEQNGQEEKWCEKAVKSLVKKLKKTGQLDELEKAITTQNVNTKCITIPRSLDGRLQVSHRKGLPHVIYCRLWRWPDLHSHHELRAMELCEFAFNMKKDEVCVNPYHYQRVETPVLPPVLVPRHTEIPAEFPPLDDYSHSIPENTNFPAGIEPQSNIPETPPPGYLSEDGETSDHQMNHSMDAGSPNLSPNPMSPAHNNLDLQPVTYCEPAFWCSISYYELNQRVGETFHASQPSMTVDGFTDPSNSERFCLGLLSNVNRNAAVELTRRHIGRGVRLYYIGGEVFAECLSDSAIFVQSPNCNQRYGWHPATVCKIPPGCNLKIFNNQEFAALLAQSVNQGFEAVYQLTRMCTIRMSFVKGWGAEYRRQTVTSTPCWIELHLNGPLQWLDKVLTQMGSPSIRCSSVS
UniProt P09874: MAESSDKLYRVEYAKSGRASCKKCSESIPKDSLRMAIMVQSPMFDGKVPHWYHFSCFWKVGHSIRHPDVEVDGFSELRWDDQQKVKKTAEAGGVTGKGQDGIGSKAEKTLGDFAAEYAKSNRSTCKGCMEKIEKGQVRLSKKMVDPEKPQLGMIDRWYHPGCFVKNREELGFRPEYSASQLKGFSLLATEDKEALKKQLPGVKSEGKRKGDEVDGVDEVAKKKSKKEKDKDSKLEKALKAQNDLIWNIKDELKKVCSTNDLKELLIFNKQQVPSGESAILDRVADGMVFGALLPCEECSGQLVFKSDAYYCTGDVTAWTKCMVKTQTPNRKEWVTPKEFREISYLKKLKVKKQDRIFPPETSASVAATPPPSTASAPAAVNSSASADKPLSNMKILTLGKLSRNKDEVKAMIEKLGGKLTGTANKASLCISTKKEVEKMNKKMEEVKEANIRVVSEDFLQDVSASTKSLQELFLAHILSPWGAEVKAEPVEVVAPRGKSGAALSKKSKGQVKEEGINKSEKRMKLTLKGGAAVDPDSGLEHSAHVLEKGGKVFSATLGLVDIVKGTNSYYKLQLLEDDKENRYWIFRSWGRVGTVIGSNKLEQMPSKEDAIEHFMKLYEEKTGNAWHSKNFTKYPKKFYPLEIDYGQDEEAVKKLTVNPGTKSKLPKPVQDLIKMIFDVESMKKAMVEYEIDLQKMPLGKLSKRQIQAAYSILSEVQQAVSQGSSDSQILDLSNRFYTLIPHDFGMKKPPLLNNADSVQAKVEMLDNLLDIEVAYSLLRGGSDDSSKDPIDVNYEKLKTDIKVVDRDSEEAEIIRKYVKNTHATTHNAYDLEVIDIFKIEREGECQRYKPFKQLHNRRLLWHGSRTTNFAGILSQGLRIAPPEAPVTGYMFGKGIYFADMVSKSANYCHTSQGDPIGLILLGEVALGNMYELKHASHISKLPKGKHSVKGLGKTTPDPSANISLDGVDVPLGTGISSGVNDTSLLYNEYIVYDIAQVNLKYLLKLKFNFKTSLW

Substance: recombinant PARP1 (from UniProt P09874 1-1014) (enzyme)
binding [1]: binds | binding [2]: binds | binding [3]: binds | binding [4]: binds | binding [5]: binds | binding [6]: binds

Substance: endogenous Smad4 (HaCaT) (from UniProt Q13485 1-552)
binding [7]: binds | binding [8]: no binding (condition: cytoplasmic HaCaT extract) | binding [9]: binds

Substance: endogenous PARP1 (HEK293T) (from UniProt P09874 1-1014) (enzyme)
binding [12]: binds | binding [13]: binds | binding [14]: binds | binding [15]: binds | binding [16]: binds | binding [17]: binds | binding [18]: binds | binding [19]: binds | binding [20]: binds | binding [21]: binds | binding [22]: binds | binding [23]: binds | binding [24]: binds

Second part, led by results:

binding [7]: binds
Substance: endogenous Smad5 (HaCaT) (from UniProt Q99717 1-465)

binding [10]: binds | binding [11]: binds | binding [9]: binds
Substance: endogenous PARP1 (HaCaT) (from UniProt P09874 1-1014) (enzyme)
binding [8]: no binding (condition: cytoplasmic HaCaT extract)

Source: PMC4933475
